These are yes or no findings as the source states them, for the method shown. In cells and extracts the contact can be indirect. Some results given as binding are weak or reduced against the parent protein; the word gives no strength.
T1: Suppressor of Hairy wing [Su(Hw)] (Drosophila (endogenous in S2 cells)) (UniProt P08970)
T1 sequence: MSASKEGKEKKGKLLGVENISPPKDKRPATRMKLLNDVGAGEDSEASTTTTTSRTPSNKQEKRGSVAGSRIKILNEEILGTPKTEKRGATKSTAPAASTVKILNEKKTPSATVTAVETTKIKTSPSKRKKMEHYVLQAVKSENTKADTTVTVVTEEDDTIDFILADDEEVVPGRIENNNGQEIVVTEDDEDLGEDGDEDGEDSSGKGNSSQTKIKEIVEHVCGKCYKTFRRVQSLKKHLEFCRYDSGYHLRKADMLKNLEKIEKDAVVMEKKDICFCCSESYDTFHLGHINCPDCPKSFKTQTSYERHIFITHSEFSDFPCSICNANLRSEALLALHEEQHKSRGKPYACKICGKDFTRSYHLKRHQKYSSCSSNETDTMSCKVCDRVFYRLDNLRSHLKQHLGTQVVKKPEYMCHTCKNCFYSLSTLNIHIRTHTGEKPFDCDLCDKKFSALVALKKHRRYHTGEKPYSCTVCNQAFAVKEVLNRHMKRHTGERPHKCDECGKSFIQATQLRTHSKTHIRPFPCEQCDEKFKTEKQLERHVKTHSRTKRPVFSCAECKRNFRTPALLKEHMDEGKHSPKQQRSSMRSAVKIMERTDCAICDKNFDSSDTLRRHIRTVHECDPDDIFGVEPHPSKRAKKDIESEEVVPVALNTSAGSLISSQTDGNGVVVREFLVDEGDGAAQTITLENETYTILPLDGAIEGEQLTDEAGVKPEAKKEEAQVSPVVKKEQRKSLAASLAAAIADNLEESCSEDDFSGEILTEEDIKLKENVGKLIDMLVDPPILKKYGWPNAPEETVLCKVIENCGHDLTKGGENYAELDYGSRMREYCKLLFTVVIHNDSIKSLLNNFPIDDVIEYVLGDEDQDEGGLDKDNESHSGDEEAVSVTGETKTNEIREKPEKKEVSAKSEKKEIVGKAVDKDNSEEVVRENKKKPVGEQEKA

Protein sequences, listed by entry. Tags and fused reporters are not part of them.
UniProt P25439: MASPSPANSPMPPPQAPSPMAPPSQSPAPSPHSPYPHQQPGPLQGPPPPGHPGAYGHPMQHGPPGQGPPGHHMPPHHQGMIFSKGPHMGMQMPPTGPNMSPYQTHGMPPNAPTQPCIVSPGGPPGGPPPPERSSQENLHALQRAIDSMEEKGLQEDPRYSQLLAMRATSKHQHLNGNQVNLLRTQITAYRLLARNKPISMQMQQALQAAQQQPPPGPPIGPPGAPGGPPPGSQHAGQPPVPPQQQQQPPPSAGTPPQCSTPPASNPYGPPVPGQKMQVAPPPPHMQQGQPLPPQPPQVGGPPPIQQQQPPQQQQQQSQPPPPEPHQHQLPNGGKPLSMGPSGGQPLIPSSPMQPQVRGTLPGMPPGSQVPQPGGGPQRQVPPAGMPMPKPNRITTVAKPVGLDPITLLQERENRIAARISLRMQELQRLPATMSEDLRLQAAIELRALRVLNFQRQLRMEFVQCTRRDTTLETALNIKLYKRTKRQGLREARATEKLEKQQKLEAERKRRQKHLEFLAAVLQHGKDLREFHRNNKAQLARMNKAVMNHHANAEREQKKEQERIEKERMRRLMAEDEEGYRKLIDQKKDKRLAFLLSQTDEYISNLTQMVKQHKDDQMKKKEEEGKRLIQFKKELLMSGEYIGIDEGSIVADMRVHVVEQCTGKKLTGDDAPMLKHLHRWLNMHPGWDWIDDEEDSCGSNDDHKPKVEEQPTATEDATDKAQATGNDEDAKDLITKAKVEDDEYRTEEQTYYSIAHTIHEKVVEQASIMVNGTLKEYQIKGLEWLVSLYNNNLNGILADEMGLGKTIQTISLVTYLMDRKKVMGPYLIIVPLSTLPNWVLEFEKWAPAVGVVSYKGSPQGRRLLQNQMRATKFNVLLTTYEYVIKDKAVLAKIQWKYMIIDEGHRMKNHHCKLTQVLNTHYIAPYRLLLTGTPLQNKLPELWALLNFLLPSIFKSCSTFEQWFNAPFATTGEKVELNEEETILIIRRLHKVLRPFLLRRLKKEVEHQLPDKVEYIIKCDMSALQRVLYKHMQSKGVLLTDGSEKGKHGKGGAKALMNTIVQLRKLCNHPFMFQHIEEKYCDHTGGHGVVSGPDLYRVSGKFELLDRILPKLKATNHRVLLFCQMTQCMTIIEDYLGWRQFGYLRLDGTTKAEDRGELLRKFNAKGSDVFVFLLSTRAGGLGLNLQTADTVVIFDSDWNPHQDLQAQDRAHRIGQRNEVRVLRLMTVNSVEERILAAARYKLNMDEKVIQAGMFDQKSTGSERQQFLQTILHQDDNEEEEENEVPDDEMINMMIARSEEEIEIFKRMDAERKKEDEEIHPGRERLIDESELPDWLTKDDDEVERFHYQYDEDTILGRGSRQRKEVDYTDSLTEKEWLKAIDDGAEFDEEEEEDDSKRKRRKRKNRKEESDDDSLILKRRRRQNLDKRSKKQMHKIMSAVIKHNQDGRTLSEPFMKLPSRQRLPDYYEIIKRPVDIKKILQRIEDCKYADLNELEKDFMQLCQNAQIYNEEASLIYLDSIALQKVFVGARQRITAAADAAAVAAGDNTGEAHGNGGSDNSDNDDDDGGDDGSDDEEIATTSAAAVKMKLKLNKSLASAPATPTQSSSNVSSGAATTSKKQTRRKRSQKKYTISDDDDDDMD
UniProt Q7KU24: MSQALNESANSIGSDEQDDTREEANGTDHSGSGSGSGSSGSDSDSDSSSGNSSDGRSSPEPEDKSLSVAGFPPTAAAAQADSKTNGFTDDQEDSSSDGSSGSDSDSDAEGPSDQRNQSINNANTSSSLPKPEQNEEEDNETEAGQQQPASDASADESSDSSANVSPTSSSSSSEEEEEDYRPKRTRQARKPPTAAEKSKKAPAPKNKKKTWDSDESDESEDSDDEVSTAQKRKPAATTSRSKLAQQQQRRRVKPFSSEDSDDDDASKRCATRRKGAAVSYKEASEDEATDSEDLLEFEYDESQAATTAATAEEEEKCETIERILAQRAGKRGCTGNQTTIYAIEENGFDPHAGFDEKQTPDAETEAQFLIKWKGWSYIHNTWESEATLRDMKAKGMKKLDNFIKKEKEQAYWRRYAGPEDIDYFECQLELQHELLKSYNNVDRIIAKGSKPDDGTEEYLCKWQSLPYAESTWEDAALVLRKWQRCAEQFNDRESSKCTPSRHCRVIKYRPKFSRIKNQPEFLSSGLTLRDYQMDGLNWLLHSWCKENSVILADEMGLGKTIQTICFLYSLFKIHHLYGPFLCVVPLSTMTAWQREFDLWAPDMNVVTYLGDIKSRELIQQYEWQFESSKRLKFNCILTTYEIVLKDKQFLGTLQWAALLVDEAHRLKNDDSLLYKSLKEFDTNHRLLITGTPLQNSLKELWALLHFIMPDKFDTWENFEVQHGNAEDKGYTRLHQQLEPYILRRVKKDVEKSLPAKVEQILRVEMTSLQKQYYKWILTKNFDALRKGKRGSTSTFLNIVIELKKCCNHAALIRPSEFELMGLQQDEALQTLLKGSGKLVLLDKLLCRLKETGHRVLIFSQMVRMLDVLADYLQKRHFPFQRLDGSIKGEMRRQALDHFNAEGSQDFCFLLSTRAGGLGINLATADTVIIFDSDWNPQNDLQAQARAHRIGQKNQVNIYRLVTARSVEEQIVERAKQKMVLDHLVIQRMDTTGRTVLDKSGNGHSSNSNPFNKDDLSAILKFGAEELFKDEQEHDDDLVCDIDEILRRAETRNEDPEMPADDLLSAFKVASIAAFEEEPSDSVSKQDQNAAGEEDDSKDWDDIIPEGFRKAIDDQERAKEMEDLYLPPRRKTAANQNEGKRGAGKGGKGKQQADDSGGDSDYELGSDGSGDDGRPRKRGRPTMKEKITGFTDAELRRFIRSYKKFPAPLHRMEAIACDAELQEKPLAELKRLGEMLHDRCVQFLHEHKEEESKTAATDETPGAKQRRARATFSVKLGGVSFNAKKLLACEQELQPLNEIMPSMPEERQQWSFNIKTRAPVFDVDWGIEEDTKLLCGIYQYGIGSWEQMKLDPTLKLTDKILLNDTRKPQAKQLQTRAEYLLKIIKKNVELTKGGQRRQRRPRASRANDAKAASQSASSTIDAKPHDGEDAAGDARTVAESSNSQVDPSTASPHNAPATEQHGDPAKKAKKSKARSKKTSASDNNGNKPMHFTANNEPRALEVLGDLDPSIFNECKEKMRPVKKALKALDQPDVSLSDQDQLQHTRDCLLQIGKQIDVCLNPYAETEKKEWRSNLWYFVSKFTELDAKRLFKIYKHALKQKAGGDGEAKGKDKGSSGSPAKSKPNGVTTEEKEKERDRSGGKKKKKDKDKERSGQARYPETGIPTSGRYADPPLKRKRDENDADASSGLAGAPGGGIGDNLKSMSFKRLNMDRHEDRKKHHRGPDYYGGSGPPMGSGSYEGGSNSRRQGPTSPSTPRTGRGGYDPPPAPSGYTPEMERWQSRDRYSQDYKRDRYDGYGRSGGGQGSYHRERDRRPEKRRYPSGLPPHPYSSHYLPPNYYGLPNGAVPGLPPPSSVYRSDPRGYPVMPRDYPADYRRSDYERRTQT
UniProt Q24368: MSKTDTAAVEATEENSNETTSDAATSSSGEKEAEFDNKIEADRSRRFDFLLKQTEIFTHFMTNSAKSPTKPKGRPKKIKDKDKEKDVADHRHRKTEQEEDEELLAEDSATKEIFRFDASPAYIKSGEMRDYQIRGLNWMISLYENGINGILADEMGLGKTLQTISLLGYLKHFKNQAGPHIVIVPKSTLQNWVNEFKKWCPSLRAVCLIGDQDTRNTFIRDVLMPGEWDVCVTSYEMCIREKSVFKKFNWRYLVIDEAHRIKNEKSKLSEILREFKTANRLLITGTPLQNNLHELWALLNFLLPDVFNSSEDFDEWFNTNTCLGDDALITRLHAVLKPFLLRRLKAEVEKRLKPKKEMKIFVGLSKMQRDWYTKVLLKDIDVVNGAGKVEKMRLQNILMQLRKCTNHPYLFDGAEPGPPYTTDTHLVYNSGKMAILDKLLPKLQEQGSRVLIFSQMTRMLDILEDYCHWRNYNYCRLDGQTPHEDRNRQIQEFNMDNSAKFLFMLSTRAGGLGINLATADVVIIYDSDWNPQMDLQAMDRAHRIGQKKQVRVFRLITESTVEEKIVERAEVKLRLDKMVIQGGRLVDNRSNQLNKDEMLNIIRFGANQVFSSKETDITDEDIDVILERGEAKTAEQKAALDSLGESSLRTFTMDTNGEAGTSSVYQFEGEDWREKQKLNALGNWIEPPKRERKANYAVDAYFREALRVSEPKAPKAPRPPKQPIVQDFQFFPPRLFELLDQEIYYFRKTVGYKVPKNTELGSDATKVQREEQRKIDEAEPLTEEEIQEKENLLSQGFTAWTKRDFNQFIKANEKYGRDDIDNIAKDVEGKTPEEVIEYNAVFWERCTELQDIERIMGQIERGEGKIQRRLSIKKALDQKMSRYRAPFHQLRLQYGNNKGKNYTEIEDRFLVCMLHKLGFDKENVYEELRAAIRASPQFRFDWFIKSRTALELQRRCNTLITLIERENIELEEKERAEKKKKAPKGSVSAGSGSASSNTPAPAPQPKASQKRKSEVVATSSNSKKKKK
UniProt O97159: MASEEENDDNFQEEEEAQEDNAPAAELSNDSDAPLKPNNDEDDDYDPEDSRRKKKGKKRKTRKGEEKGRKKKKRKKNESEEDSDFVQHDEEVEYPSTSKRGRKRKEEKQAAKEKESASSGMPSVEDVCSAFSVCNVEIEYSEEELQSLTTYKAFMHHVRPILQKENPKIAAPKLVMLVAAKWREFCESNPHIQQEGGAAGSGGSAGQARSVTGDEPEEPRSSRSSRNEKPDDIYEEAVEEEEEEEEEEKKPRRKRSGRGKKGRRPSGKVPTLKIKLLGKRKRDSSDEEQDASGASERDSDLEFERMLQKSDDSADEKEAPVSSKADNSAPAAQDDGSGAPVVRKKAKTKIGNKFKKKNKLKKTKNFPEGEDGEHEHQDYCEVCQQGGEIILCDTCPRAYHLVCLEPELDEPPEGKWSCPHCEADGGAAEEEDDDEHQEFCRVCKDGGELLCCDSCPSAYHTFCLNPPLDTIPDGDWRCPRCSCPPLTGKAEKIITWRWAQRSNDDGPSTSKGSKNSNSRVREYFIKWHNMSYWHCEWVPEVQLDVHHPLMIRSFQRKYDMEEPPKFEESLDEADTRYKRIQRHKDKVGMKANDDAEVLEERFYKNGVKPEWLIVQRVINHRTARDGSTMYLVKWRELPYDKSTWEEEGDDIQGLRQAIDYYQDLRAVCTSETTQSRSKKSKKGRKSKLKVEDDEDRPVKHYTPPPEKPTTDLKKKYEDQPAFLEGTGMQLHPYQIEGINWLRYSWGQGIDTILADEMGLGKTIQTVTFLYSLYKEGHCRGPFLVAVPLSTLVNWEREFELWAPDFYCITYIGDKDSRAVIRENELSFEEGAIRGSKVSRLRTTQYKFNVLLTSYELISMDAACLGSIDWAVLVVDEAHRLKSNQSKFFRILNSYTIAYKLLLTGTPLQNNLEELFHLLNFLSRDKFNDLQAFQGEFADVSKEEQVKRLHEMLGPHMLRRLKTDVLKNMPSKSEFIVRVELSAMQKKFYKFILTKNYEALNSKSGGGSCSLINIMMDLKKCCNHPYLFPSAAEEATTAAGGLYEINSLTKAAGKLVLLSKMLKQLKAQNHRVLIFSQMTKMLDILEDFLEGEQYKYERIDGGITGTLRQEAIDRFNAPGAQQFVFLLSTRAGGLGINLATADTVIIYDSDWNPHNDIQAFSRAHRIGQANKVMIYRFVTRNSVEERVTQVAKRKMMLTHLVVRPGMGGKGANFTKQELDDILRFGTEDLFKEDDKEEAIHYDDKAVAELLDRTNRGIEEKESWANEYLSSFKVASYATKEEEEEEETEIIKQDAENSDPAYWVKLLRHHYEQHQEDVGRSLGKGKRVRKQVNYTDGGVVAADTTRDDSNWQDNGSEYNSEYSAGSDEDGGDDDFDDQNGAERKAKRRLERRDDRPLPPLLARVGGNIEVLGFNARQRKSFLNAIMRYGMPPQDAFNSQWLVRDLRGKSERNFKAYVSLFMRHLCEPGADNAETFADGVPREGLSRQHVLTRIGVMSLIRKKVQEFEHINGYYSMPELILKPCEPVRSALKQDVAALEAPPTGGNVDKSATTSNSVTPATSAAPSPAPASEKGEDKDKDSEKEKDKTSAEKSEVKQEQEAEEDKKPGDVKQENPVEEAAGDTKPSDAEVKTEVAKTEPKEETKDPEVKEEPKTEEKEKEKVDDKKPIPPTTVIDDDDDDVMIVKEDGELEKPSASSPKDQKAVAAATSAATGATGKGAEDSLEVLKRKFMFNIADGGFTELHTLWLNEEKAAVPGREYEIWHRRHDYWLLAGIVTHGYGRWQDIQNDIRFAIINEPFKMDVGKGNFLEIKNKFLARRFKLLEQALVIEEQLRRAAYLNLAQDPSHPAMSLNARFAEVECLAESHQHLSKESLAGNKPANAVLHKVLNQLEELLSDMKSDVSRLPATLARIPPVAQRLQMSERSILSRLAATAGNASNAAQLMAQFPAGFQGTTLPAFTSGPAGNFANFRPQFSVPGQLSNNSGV

B1: Suppressor of Hairy wing [Su(Hw)] (protein, UniProt P08970 1-941)
chain: T1 sequence

Key:
Assay in all cases: co-IP; immunoprecipitations with antibodies against Su(Hw), Brm, ISWI, Mi-2 and CHD1 from nuclear protein extracts of Drosophila S2 cells; Western blot; serum of non-immunized rabbits as negative control
[1] = molecular target: T1, Suppressor of Hairy wing [Su(Hw)] (Drosophila (endogenous in S2 cells))
[2] = molecular target: Brahma (SWI/SNF family chromatin remodeler) (Drosophila (endogenous in S2 cells)) (UniProt P25439)
[3] = molecular target: CHD1 (CHD family chromatin remodeler) (Drosophila (endogenous in S2 cells)) (UniProt Q7KU24)
[4] = molecular target: ISWI (ISWI family chromatin remodeler) (Drosophila (endogenous in S2 cells)) (UniProt Q24368)
[5] = molecular target: Mi-2 (CHD family chromatin remodeler) (Drosophila (endogenous in S2 cells)) (UniProt O97159)

Row | Molecule | binding [1] | other results
1 | Brahma (SWI/SNF family chromatin remodeler) (from UniProt P25439 1-1638) | binds | –
2 | CHD1 (CHD family chromatin remodeler) (from UniProt Q7KU24 1-1883) | binds | –
3 | ISWI (ISWI family chromatin remodeler) (from UniProt Q24368 1-1027) | binds | –
4 | Mi-2 (CHD family chromatin remodeler) (from UniProt O97159 1-1982) | binds | –
5 | B1 | – | binding [2]: binds; binding [3]: binds; binding [4]: binds; binding [5]: binds

Reference: article PMC8379230
